# Test results taken from US20250223358A1.
# Sequences of proteins named here, by UniProt entry; tags and fusion partners are left off. A change or cut given only in a name is not applied to a line headed by its entry.
# UniProt P07766: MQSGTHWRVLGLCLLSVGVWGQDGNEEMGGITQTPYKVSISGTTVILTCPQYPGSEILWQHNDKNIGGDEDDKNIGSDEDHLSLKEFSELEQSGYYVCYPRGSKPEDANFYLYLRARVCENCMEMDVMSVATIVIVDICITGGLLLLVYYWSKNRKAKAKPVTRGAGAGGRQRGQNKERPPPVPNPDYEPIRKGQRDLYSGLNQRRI
# UniProt P04234: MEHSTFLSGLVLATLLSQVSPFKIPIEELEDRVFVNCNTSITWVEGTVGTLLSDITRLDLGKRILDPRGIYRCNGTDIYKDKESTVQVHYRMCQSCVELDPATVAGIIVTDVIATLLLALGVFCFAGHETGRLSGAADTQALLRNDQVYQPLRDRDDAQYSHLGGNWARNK
# UniProt P09693: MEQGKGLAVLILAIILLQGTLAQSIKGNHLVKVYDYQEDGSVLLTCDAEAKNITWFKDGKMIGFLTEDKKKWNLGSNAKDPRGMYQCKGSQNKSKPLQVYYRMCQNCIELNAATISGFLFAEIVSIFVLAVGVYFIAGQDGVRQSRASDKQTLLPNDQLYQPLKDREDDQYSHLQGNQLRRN
# No constants are given. Whether binding was seen depends on the method and setting. Some results given as binding are weak or reduced against the parent protein; the word gives no strength.
# Biological target: human CD3 (human) (UniProt P07766+P04234+P09693)
# Assay: FACS on Jurkat cells
row,Binder,binding
1,"hu40E9-L2H3-D99E.H (antibody, V domains shown) VH: EVQLVQSGAEVKKPGSSVKVSCKASGYTFSSYVIHWVRQAPGQGLEWMGYINPYNDVIKYNEKFKGRVTLTSDKSTSTAYMELSSLRSEDTAVYYCARESYYSYDGFAYWGQGTLVTVSS VL: EIVLTQSPDFQSVTPKEKVTITCSASSSVSYMHWYQQKPDQSPKRLIYDTSKLASGVPSRFSGSGSGTDFTLTINSLEAEDAATYYCQQWSSNPPTFGGGTKVEIK",binds
2,"hu40E9-L2H3-G106A.H (antibody, V domains shown) VH: EVQLVQSGAEVKKPGSSVKVSCKASGYTFSSYVIHWVRQAPGQGLEWMGYINPYNDVIKYNEKFKGRVTLTSDKSTSTAYMELSSLRSEDTAVYYCARDSYYSYDAFAYWGQGTLVTVSS VL: EIVLTQSPDFQSVTPKEKVTITCSASSSVSYMHWYQQKPDQSPKRLIYDTSKLASGVPSRFSGSGSGTDFTLTINSLEAEDAATYYCQQWSSNPPTFGGGTKVEIK",binds
3,"hu40E9-L2H3-N93S.L (antibody, V domains shown) VH: EVQLVQSGAEVKKPGSSVKVSCKASGYTFSSYVIHWVRQAPGQGLEWMGYINPYNDVIKYNEKFKGRVTLTSDKSTSTAYMELSSLRSEDTAVYYCARDSYYSYDGFAYWGQGTLVTVSS VL: EIVLTQSPDFQSVTPKEKVTITCSASSSVSYMHWYQQKPDQSPKRLIYDTSKLASGVPSRFSGSGSGTDFTLTINSLEAEDAATYYCQQWSSSPPTFGGGTKVEIK",binds
4,"hu40E9-L2H3-D56G.H (antibody, V domains shown) VH: EVQLVQSGAEVKKPGSSVKVSCKASGYTFSSYVIHWVRQAPGQGLEWMGYINPYNGVIKYNEKFKGRVTLTSDKSTSTAYMELSSLRSEDTAVYYCARDSYYSYDGFAYWGQGTLVTVSS VL: EIVLTQSPDFQSVTPKEKVTITCSASSSVSYMHWYQQKPDQSPKRLIYDTSKLASGVPSRFSGSGSGTDFTLTINSLEAEDAATYYCQQWSSNPPTFGGGTKVEIK",binds
5,"hu40E9-L2H3-N55S.H (antibody, V domains shown) VH: EVQLVQSGAEVKKPGSSVKVSCKASGYTFSSYVIHWVRQAPGQGLEWMGYINPYSDVIKYNEKFKGRVTLTSDKSTSTAYMELSSLRSEDTAVYYCARDSYYSYDGFAYWGQGTLVTVSS VL: EIVLTQSPDFQSVTPKEKVTITCSASSSVSYMHWYQQKPDQSPKRLIYDTSKLASGVPSRFSGSGSGTDFTLTINSLEAEDAATYYCQQWSSNPPTFGGGTKVEIK",binds
6,"hu40E9-L2H3-Y54G.H (antibody, V domains shown) VH: EVQLVQSGAEVKKPGSSVKVSCKASGYTFSSYVIHWVRQAPGQGLEWMGYINPGNDVIKYNEKFKGRVTLTSDKSTSTAYMELSSLRSEDTAVYYCARDSYYSYDGFAYWGQGTLVTVSS VL: EIVLTQSPDFQSVTPKEKVTITCSASSSVSYMHWYQQKPDQSPKRLIYDTSKLASGVPSRFSGSGSGTDFTLTINSLEAEDAATYYCQQWSSNPPTFGGGTKVEIK",binds
7,"hu40E9-L2H3-N93R.L (antibody, V domains shown) VH: EVQLVQSGAEVKKPGSSVKVSCKASGYTFSSYVIHWVRQAPGQGLEWMGYINPYNDVIKYNEKFKGRVTLTSDKSTSTAYMELSSLRSEDTAVYYCARDSYYSYDGFAYWGQGTLVTVSS VL: EIVLTQSPDFQSVTPKEKVTITCSASSSVSYMHWYQQKPDQSPKRLIYDTSKLASGVPSRFSGSGSGTDFTLTINSLEAEDAATYYCQQWSSRPPTFGGGTKVEIK",binds
8,"hu40E9-L2H3-S91R.L (antibody, V domains shown) VH: EVQLVQSGAEVKKPGSSVKVSCKASGYTFSSYVIHWVRQAPGQGLEWMGYINPYNDVIKYNEKFKGRVTLTSDKSTSTAYMELSSLRSEDTAVYYCARDSYYSYDGFAYWGQGTLVTVSS VL: EIVLTQSPDFQSVTPKEKVTITCSASSSVSYMHWYQQKPDQSPKRLIYDTSKLASGVPSRFSGSGSGTDFTLTINSLEAEDAATYYCQQWRSNPPTFGGGTKVEIK",binds
9,"hu40E9-L2H2 (antibody, V domains shown) VH: EVQLVQSGAEVKKPGSSVKVSCKASGYTFSSYVIHWVRQAPGQGLEWMGYINPYNDVIKYNEKFKGRVTITADKSTSTAYMELSSLRSEDTAVYYCARDSYYSYDGFAYWGQGTLVTVSS VL: EIVLTQSPDFQSVTPKEKVTITCSASSSVSYMHWYQQKPDQSPKRLIYDTSKLASGVPSRFSGSGSGTDFTLTINSLEAEDAATYYCQQWSSNPPTFGGGTKVEIK",binds
10,"hu40E9-L2H1 (antibody, V domains shown) VH: EVQLVQSGAEVKKPGSSVKVSCKASGGTFSSYVIHWVRQAPGQGLEWMGYINPYNDVIKYNEKFKGRVTITADKSTSTAYMELSSLRSEDTAVYYCARDSYYSYDGFAYWGQGTLVTVSS VL: EIVLTQSPDFQSVTPKEKVTITCSASSSVSYMHWYQQKPDQSPKRLIYDTSKLASGVPSRFSGSGSGTDFTLTINSLEAEDAATYYCQQWSSNPPTFGGGTKVEIK",binds
11,"hu40E9-L2H3 (antibody, V domains shown) VH: EVQLVQSGAEVKKPGSSVKVSCKASGYTFSSYVIHWVRQAPGQGLEWMGYINPYNDVIKYNEKFKGRVTLTSDKSTSTAYMELSSLRSEDTAVYYCARDSYYSYDGFAYWGQGTLVTVSS VL: EIVLTQSPDFQSVTPKEKVTITCSASSSVSYMHWYQQKPDQSPKRLIYDTSKLASGVPSRFSGSGSGTDFTLTINSLEAEDAATYYCQQWSSNPPTFGGGTKVEIK",binds
12,"hu40E9-L2H3-D105R.H (antibody, V domains shown) VH: EVQLVQSGAEVKKPGSSVKVSCKASGYTFSSYVIHWVRQAPGQGLEWMGYINPYNDVIKYNEKFKGRVTLTSDKSTSTAYMELSSLRSEDTAVYYCARDSYYSYRGFAYWGQGTLVTVSS VL: EIVLTQSPDFQSVTPKEKVTITCSASSSVSYMHWYQQKPDQSPKRLIYDTSKLASGVPSRFSGSGSGTDFTLTINSLEAEDAATYYCQQWSSNPPTFGGGTKVEIK",binds
13,"hu40E9-L2H3-D105E.H (antibody, V domains shown) VH: EVQLVQSGAEVKKPGSSVKVSCKASGYTFSSYVIHWVRQAPGQGLEWMGYINPYNDVIKYNEKFKGRVTLTSDKSTSTAYMELSSLRSEDTAVYYCARDSYYSYEGFAYWGQGTLVTVSS VL: EIVLTQSPDFQSVTPKEKVTITCSASSSVSYMHWYQQKPDQSPKRLIYDTSKLASGVPSRFSGSGSGTDFTLTINSLEAEDAATYYCQQWSSNPPTFGGGTKVEIK",binds
14,"hu40E9-L2H3-N93W.L (antibody, V domains shown) VH: EVQLVQSGAEVKKPGSSVKVSCKASGYTFSSYVIHWVRQAPGQGLEWMGYINPYNDVIKYNEKFKGRVTLTSDKSTSTAYMELSSLRSEDTAVYYCARDSYYSYDGFAYWGQGTLVTVSS VL: EIVLTQSPDFQSVTPKEKVTITCSASSSVSYMHWYQQKPDQSPKRLIYDTSKLASGVPSRFSGSGSGTDFTLTINSLEAEDAATYYCQQWSSWPPTFGGGTKVEIK",binds

# Second part, the binder after the results:
row,binding,Binder
1,binds,"hu40E9-L2H5 (antibody, V domains shown) VH: EVQLVQSGAEVKKPGSSVKVSCKASGYTFSSYVIHWVRQAPGQGLEWMGYINPGSGVIKYNEKFKGRVTLTSDKSTSTAYMELSSLRSEDTAVYYCARDSYYSYDGFAYWGQGTLVTVSS VL: EIVLTQSPDFQSVTPKEKVTITCSASSSVSYMHWYQQKPDQSPKRLIYDTSKLASGVPSRFSGSGSGTDFTLTINSLEAEDAATYYCQQWSSNPPTFGGGTKVEIK"
2,binds,"hu40E9-L2H14 (antibody, V domains shown) VH: EVQLVQSGAEVKKPGSSVKVSCKASGYTFSSYVIHWVRQAPGQGLEWMGYINPYNDVIKYNEKFKGRVTLTSDKSTSTAYMELSSLRSEDTAVYYCARESYYSYDGFAYWGQGTLVTVSS VL: EIVLTQSPDFQSVTPKEKVTITCSASSSVSYMHWYQQKPDQSPKRLIYDTSKLASGVPSRFSGSGSGTDFTLTINSLEAEDAATYYCQQWSSNPPTFGGGTKVEIK"
3,binds,"hu40E9-L2H3-Y101F.H (antibody, V domains shown) VH: EVQLVQSGAEVKKPGSSVKVSCKASGYTFSSYVIHWVRQAPGQGLEWMGYINPYNDVIKYNEKFKGRVTLTSDKSTSTAYMELSSLRSEDTAVYYCARDSFYSYDGFAYWGQGTLVTVSS VL: EIVLTQSPDFQSVTPKEKVTITCSASSSVSYMHWYQQKPDQSPKRLIYDTSKLASGVPSRFSGSGSGTDFTLTINSLEAEDAATYYCQQWSSNPPTFGGGTKVEIK"
4,binds,"hu40E9-L3H4 (antibody, V domains shown) VH: EVQLVQSGAEVKKPGSSVKVSCKASGYTFSSYVIHWVRQAPGQGLEWIGYINPYNDVIKYNEKFKGRATLTSDKSTSTAYMELSSLRSEDTAVYYCARDSYYSYDGFAYWGQGTLVTVSS VL: EIVLTQSPDFQSVTPKEKVTITCSASSSVSYMHWYQQKPDQSPKRWIYDTSKLASGVPSRFSGSGSGTDYTLTINSLEAEDAATYYCQQWSSNPPTFGGGTKVEIK"
5,binds,"hu40E9-L2H3-Y102S.H (antibody, V domains shown) VH: EVQLVQSGAEVKKPGSSVKVSCKASGYTFSSYVIHWVRQAPGQGLEWMGYINPYNDVIKYNEKFKGRVTLTSDKSTSTAYMELSSLRSEDTAVYYCARDSYSSYDGFAYWGQGTLVTVSS VL: EIVLTQSPDFQSVTPKEKVTITCSASSSVSYMHWYQQKPDQSPKRLIYDTSKLASGVPSRFSGSGSGTDFTLTINSLEAEDAATYYCQQWSSNPPTFGGGTKVEIK"
6,binds,"hu40E9-L2H4 (antibody, V domains shown) VH: EVQLVQSGAEVKKPGSSVKVSCKASGYTFSSYVIHWVRQAPGQGLEWIGYINPYNDVIKYNEKFKGRATLTSDKSTSTAYMELSSLRSEDTAVYYCARDSYYSYDGFAYWGQGTLVTVSS VL: EIVLTQSPDFQSVTPKEKVTITCSASSSVSYMHWYQQKPDQSPKRLIYDTSKLASGVPSRFSGSGSGTDFTLTINSLEAEDAATYYCQQWSSNPPTFGGGTKVEIK"
7,binds,"hu40E9-L3H2 (antibody, V domains shown) VH: EVQLVQSGAEVKKPGSSVKVSCKASGYTFSSYVIHWVRQAPGQGLEWMGYINPYNDVIKYNEKFKGRVTITADKSTSTAYMELSSLRSEDTAVYYCARDSYYSYDGFAYWGQGTLVTVSS VL: EIVLTQSPDFQSVTPKEKVTITCSASSSVSYMHWYQQKPDQSPKRWIYDTSKLASGVPSRFSGSGSGTDYTLTINSLEAEDAATYYCQQWSSNPPTFGGGTKVEIK"
8,binds,"hu40E9-L3H1 (antibody, V domains shown) VH: EVQLVQSGAEVKKPGSSVKVSCKASGGTFSSYVIHWVRQAPGQGLEWMGYINPYNDVIKYNEKFKGRVTITADKSTSTAYMELSSLRSEDTAVYYCARDSYYSYDGFAYWGQGTLVTVSS VL: EIVLTQSPDFQSVTPKEKVTITCSASSSVSYMHWYQQKPDQSPKRWIYDTSKLASGVPSRFSGSGSGTDYTLTINSLEAEDAATYYCQQWSSNPPTFGGGTKVEIK"
